Laboratory results reported in the supplement of paper PMC9135407.
Where “and” joins values, the source holds several entries; their conditions need not be identical. Equal values may be shown once. Where a name gives a salt, the structure may show the parent alone. ± gives the standard deviation of the averaged measurements. Some of the results follow. Part of the spread comes from offsets between plates or batches.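 Culture-activated primary human stellate myofibroblasts, where regained lipid droplets signal inactivation. Value: share of Hoechst-counted cells above a per-plate Bodipy cutoff, in duplicate wells, with DMSO negative and nortriptyline positive controls on each plate. Hits: a control-normalized score above the plate's top-tenth-percentile nortriptyline wells, or one of a plate's three best wells. Final well concentrations are not given.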

Tested on: primary human hepatic stellate cells (donor 1)
Experiment: percent Bodipy-positive cells; higher = more lipid droplet accumulation
Details: 48 h
[1] = library stock concentration: 10 mM
[2] = library stock concentration: 3.33 mM
[3] = library stock concentration: 80 uM
[4] = library stock concentration: 400 uM
[5] = library stock concentration: 2 mM
[6] = library stock concentration: 1 mM

CC1Nc2ccc(Cl)cc2S(=O)(=O)N1 (stereo not given)
percent Bodipy-positive cells [1]: 8.03 ± 3%

OCCN1CCN(CCCN2c3ccccc3Sc3ccc(Cl)cc32)CC1 [Perphenazine]
percent Bodipy-positive cells [1]: 92.5 ± 3.2%

CCC(=O)c1ccc(O)cc1
percent Bodipy-positive cells [1]: 30.4 ± 7%

C=CC(=O)Nc1cccc(Nc2nc(Nc3ccc(N4CCN(C(C)=O)CC4)cc3OC)ncc2C(F)(F)F)c1
percent Bodipy-positive cells [2]: 25.7 ± 9.3%
percent Bodipy-positive cells [1]: 48.5 ± 5.8%

CS(=O)(=O)CCNCc1ccc(-c2ccc3ncnc(Nc4ccc(OCc5cccc(F)c5)c(Cl)c4)c3c2)o1
percent Bodipy-positive cells [3]: 8.63 ± 2.7%
percent Bodipy-positive cells [4]: 15% and 39.9%
percent Bodipy-positive cells [5]: 58.6 ± 10%
percent Bodipy-positive cells [1]: 49.6 ± 5.2%

COC(=O)c1sccc1S(=O)(=O)Nc1ccc(Nc2ccccc2)cc1OC
percent Bodipy-positive cells [1]: 12.8 ± 6.5%

CC(C)(Sc1cc(C(C)(C)C)c(O)c(C(C)(C)C)c1)Sc1cc(C(C)(C)C)c(O)c(C(C)(C)C)c1 [Probucol]
percent Bodipy-positive cells: 27.9 ± 0.75%
percent Bodipy-positive cells [2]: 9.35 ± 1.6%
percent Bodipy-positive cells [1]: 11.3% and 31.3%

CCCCCC#CCC#CCCCCCCCC(=O)O [9,12-Octadecadiynoic Acid]
percent Bodipy-positive cells [6]: 9.85 ± 1.1%

CCCCC[C@H](O)/C=C/[C@H]1[C@H](O)CC(=O)[C@@H]1C/C=C\CCCC(=O)NCCO [Prostaglandin E2 Ethanolamide]
percent Bodipy-positive cells [6]: 19.9 ± 1.1%

CN1CCc2ccccc2Cc2[nH]c3ccccc3c2CC1
percent Bodipy-positive cells [1]: 57.3 ± 5.9%

CCCCCCCCCC(=O)NC(CN1CCOCC1)C(O)c1ccccc1 (racemic)
percent Bodipy-positive cells [6]: 8.8 ± 8.1%

CCC[C@H](Nc1nc(-c2ccc(NC(=O)NCC)c(OC)c2)ncc1C)c1cccnc1 [CYT997 (Lexibulin)]
percent Bodipy-positive cells [2]: 74.2 ± 15%
percent Bodipy-positive cells [1]: 79.64 ± 0.73%

COC1C(O)CC(=O)OC(C)CC=CC=CC(OC2CCC(N(C)C)C(C)O2)C(C)CC(CC=O)C1OC1OC(C)C(OC2CC(C)(O)C(O)C(C)O2)C(N(C)C)C1O (stereo not given) [Spiramycin]
percent Bodipy-positive cells [2]: 20.05 ± 0.2%
percent Bodipy-positive cells [1]: 62.9 ± 3.3%

CCCCc1c(-c2ccc(OC)cc2)[nH]c2nccnc12 [Aloisine, RP106]
percent Bodipy-positive cells [2]: 17.9 ± 5.2%

O=c1cc(N2CCNCC2)oc2c(-c3ccccc3)cccc12
percent Bodipy-positive cells [2]: 42.3 ± 2.7%

CC(=O)c1cnc2ccc(-c3cc(Cl)c(O)c(Cl)c3)nc2c1N[C@H]1CC[C@H](CN(C)C)CC1.Cl
percent Bodipy-positive cells [1]: 91.1 ± 2.8%

COc1cc2ncc(-c3ccccc3)nc2cc1OC
percent Bodipy-positive cells [2]: 10.42 ± 0.1%
percent Bodipy-positive cells (library stock concentration: 18.8 mM): 23.7 ± 4.8%

COc1cc2ncc(-c3ccccc3)nc2cc1OC [Tyrphostin AG 1296]
percent Bodipy-positive cells [2]: 25.5 ± 3.2%
percent Bodipy-positive cells [1]: 31.9 ± 5.9%

COc1cc(Nc2ncc(F)c(Nc3ccc4c(n3)NC(=O)C(C)(C)O4)n2)cc(OC)c1OC
percent Bodipy-positive cells [3]: 8.43 ± 3.4%
percent Bodipy-positive cells [4]: 5.03 ± 0.14%
percent Bodipy-positive cells [5]: 29.2 ± 4.4%
percent Bodipy-positive cells [2]: 30.4 ± 2.6%

CN1CCCN=C1COC(=O)C(O)(c1ccccc1)C1CCCCC1 (stereo not given) [Oxyphencyclimine hydrochloride]
percent Bodipy-positive cells (library stock concentration: 5.3 mM): 12.6 ± 0.27%
percent Bodipy-positive cells [1]: 63 ± 2.2%

CC(C)(Oc1ccc(Cl)cc1)C(=O)O [Clofibric Acid]
percent Bodipy-positive cells [2]: 9.71 ± 3.9%
percent Bodipy-positive cells [1]: 22.2 ± 0.53%

CC(C)(Oc1ccc(Cl)cc1)C(=O)O [Clofibric acid]
percent Bodipy-positive cells: 12.5 ± 0.14%
percent Bodipy-positive cells [1]: 9.13% and 7.69%

COc1ccc(C(=O)Nc2sc3c(c2C(N)=O)CCCC3)cc1OC
percent Bodipy-positive cells [2]: 76.88 ± 0.34%

CC(=O)N[C@@H](CCC(N)=O)C(=O)O
percent Bodipy-positive cells [1]: 26.4 ± 1.3%

CC(=O)NO [Acetohydroxamic acid]
percent Bodipy-positive cells [1]: 9.91 ± 3.4%

CC(N)(Cc1ccc(O)c(O)c1)C(=O)O (stereo not given)
percent Bodipy-positive cells [1]: 6.91 ± 2.4%

O=NO [Sodium Nitrite]
percent Bodipy-positive cells [2]: 12.1 ± 2.3%
percent Bodipy-positive cells [1]: 24.4 ± 13%

N[C@@H](Cn1ccc(=O)c(O)c1)C(=O)O [L-Mimosine from Koa hoale seeds]
percent Bodipy-positive cells [1]: 25.5 ± 3%

CN(C)CC/C=C1\c2ccccc2CSc2ccccc21 [Dosulepin hydrochloride]
percent Bodipy-positive cells: 80.4 ± 1.9%

COC(=O)[C@H](Cc1ccccc1)NC(=O)/C=C/c1ccc(O)cc1
percent Bodipy-positive cells [6]: 7.24 ± 0.69%

CC(C)(S)[C@@H](N)C(=O)O [Penicillamine]
percent Bodipy-positive cells [1]: 18.8 ± 6.7%
percent Bodipy-positive cells (library stock concentration: 13.4 mM): 87.6 ± 1.3%

O=C(O)C1CSCN1 (stereo not given)
percent Bodipy-positive cells [1]: 34.4 ± 9.2%

Cc1cc(C(=O)NNCc2ccccc2)no1 [Isocarboxazid]
percent Bodipy-positive cells: 9.89 ± 7.8%

CO[C@H]1C[C@H](O[C@H]2[C@H](C)[C@@H](O[C@@H]3O[C@H](C)C[C@H](N(C)C)[C@H]3OC(C)=O)[C@@H](C)C[C@@]3(CO3)C(=O)[C@H](C)[C@@H](OC(C)=O)[C@@H](C)[C@@H](C)OC(=O)[C@@H]2C)O[C@@H](C)[C@@H]1OC(C)=O [Troleandomycin]
percent Bodipy-positive cells: 27.3 ± 1.5%
percent Bodipy-positive cells [1]: 32.6 ± 9.2%

COc1ccc(-c2ccc(=N)n(CCCC(=O)O)n2)cc1 [Gabazine]
percent Bodipy-positive cells: 28.8 ± 0.81%

COc1ccc(-c2ccc(=N)n(CCCC(=O)O)n2)cc1
percent Bodipy-positive cells [1]: 16.3% and 8.7%

Cc1cc(Nc2ncnc3ccc(-c4ccc(CNCCS(C)(=O)=O)o4)cc23)ccc1Oc1ccn2ncnc2c1 [HER2-Inhibitor-1]
percent Bodipy-positive cells [1]: 94 ± 1.3%

CCC(=O)OCC(=O)[C@@]1(OC(=O)CC)[C@H](C)CC2C3C([C@@H](O)C[C@@]21C)[C@@]1(C)C=CC(=O)C=C1C[C@H]3Cl (stereo not given in full)
percent Bodipy-positive cells [1]: 24.4 ± 4.5%

CSc1ccc(C(=O)c2[nH]c(=O)[nH]c2C)cc1 [Enoximone]
percent Bodipy-positive cells [1]: 30.4 ± 3.1%

S=C(Nc1ccccc1)Nc1nccs1 [1-Phenyl-3-(2-thiazolyl)-2-thiourea]
percent Bodipy-positive cells [1]: 39.1 ± 8.6%

CCCCC[C@H](O)/C=C/[C@@H]1[C@@H](C/C=C\CCCC(=O)NCCO)[C@@H](O)C[C@H]1O [Prostaglandin F2.alpha. Ethanolamide]
percent Bodipy-positive cells [6]: 11.8 ± 3.8%
